Test results taken from US9669050B2, “Composition for prevention or treatment of hyperlipidemia, fatty liver or obesity” (BENEBIOSIS CO., LTD., priority 2008, dated 2017).

Key:
[1] = system: high-fat diet C56BL/6 male mice; assay: Body weight change and food intake of high-fat diet mice; type: in vivo, mouse; settings: peritoneal injection every day
Description: 4 week-old C56BL/6 male mice were purchased from Dooyeul Biotech (Korea). Water was allowed freely and commercially available pellet feed (Dooyeul Biotech, Korea) was given for a week. The mice were grouped into six groups (six per each group) as follows: ND, normal diet group (normal group); HD, high-fat (60% fat) diet [purchased from Research Diets (New Brunswick, USA)] group (control group); and HD+SL (0.1 mg/kg), HD+SL (0.5 mg/kg), HD+SL (1.0 mg/kg) and HD+SL (5.0 mg/kg), high-fat diet groups treated with sialyllactose (SL, Sigma). Sialyllactose or PBS was administered every day by peritoneal injection. The mice were kept in cages for 50 days and sacrificed after fasting for 12 hours. Food intake and body weight change were measured every 7 days. 3′-Sialyllactose (3′-N-acetylneuraminyl-D-lactose, 3′-sialyl-D-lactose or α-NeuNAc-(2→3)-β-D-Gal-(1→4)-D-Glc) and 6′-sialyllactose (6′-N-acetylneuraminyl-lactose, 6′-sialyl-D-lactose or α-NeuNAc-(2→6)-β-D-Gal-(1→4)-D-Glc) were purchased from Sigma-Aldrich.

[2] = system: high-fat diet SD rats; assay: Body weight change, food and water intake of high-fat diet rats; type: in vivo, rat; settings: orally administered every day
Description: 4 week-old Sprague-Dawley (SD) rats were purchased from Dooyeul Biotech (Korea). Water was allowed freely and commercially available pellet feed (Dooyeul Biotech, Korea) was given for a week. The rats were grouped into four groups (six per each group) as follows: ND, normal diet group (normal group); HD, high-fat (60% fat) diet [purchased from Research Diets (New Brunswick, USA)] group (control group); and HD+SL (1 mg/kg) and HD+SL (5 mg/kg), high-fat diet groups treated with SL (Sigma). 3′-SL or deionized water (DW) was orally administered every day. The mice were kept in cages for 7 weeks and sacrificed after fasting for 12 hours. Food intake and body weight change were measured every 5 days.

CC(=O)N[C@H]1[C@H]([C@H](O)[C@H](O)CO)O[C@@](OC[C@H]2O[C@@H](O[C@H]3[C@H](O)[C@@H](O)[C@H](O)O[C@@H]3CO)[C@H](O)[C@@H](O)[C@H]2O)(C(=O)O)C[C@@H]1O [6′-SL, α-NeuNAc-(2→6)-β-D-Gal-(1→4)-D-Glc]
Food intake ([1]; HD + SL 0.1 mg/kg): 2.68 ± 0.13(*) | Food intake ([1]; HD + SL 0.5 mg/kg): 2.56 ± 0.21(*) | Food intake ([1]; HD + SL 1.0 mg/kg): 2.31 ± 0.21(*) | Food intake ([1]; HD + SL 5.0 mg/kg): 2.62 ± 0.11(*)

CC(=O)N[C@H]1[C@H]([C@H](O)[C@H](O)CO)O[C@@](O[C@H]2[C@@H](O)[C@@H](CO)O[C@@H](O[C@H]3[C@H](O)[C@@H](O)C(O)O[C@@H]3CO)[C@@H]2O)(C(=O)O)C[C@@H]1O (stereo partly drawn) [3′-SL, α-NeuNAc-(2→3)-β-D-Gal-(1→4)-D-Glc]
Food intake ([1]; HD + SL 0.1 mg/kg): 2.31 ± 0.13 | Food intake ([1]; HD + SL 0.5 mg/kg): 2.30 ± 0.17 | Food intake ([1]; HD + SL 1.0 mg/kg): 2.28 ± 0.13 | Food intake ([1]; HD + SL 5.0 mg/kg): 2.27 ± 0.18 | Food intake ([2]; HD + SL 1.0 mg/kg): 23.46 ± 0.82 g/day | Water intake ([2]; HD + SL 1.0 mg/kg): 54.27 ± 2.53 mL/day | Food intake ([2]; HD + SL 5.0 mg/kg): 24.08 ± 1.22 g/day | Water intake ([2]; HD + SL 5.0 mg/kg): 55.36 ± 3.32 mL/day
